The source of these data is PubChem BioAssay AID504647 (National Center for Advancing Translational Sciences (NCATS), 2011).

For orientation: viability means a read-out of living cells in per cent, often relative to untreated cells.

Some of the results follow. These are further read-outs of the screen, such as a control signal, another cell line or another target. No call is given for them.

This assay can be described thus: Assay for Inhibitors of Influenza NS1 Protein Function: Influenza virus replication assay in MDCK cells infected with virus A/PR/8/34. Particulars: MDCK infected influenza A/PR/8/34, virus titer TCID50; measured here: MDCK cell viability; at 5 µM; stronger effect = higher value. The source says:
NIH Chemical Genomics Center [NCGC]
NIH Molecular Libraries Probe Centers Network [MLPCN]
Assay Submitter (PI): Daniel Engel
Influenza is a world-wide public health problem and emerging forms of the virus have the potential to cause a pandemic of equal or greater magnitude to the outbreaks recorded in 1918, 1957 or 1968. Vaccine development is proceeding and there also exist two classes of anti-influenza compounds. However these therapeutic modalities are neither fully effective nor widely enough available to fulfill global needs. In addition their potential usefulness against newly emergent strains is not known. Efforts are needed to develop novel agents against influenza virus, including broad-spectrum agents. Identification of small molecules that inhibit NS1 function either directly or by interfering with specific cellular pathways may be a key to increasing our defense against the virus.
We have miniaturized and optimized a cell based assay in which NS1 from influenza A is expressed in the budding yeast S. cerevisiae. NS1 is a multi-functional protein that counters the host innate immune response and facilitates viral versus cellular gene expression. Expression of NS1 causes a pronounced slow growth phenotype in yeast due to its intrinsic molecular activities. Small molecules that suppress the slow growth phenotype can be identified by a straightforward growth recovery assay using optical density (OD) as the measurement. The same yeast strain not expressing NS1 was used as positive control in the yeast growth recovery assay. The present experiment attempted to confirm the activity of compounds observed in the primary screen.
This assay confirms the activity of compounds from the primary screen by measuring their affect on viral replication.
Protocol details are given in Basu et al. J. Vir. 83(4):1881-1891 2009. […] All media and sera were from Invitrogen. […] Confluent cell monolayers were infected at a multiplicity of infection (MOI) of 0.1 for 48 h in the presence or absence of 5uM compound. Compounds were added at the beginning of infection and were present throughout the infection. After 48 h virus titers were determined by standard TCID50 analysis.
For `CC(=O)c1ccc(N2CCN(C(=O)c3cc(-c4ccc5c(c4)OCO5)nc4ccccc34)CC2)cc1`, the viability amounted to 104%.

With `CC1CC(C)CN(S(=O)(=O)N2CCCC(C(=O)NCc3ccccc3Cl)C2)C1` (stereo not given), the viability turned out to be 106%.

In the case of `COc1ccccc1/C=C1\CCCC2=C1Nc1nnnn1C2c1ccccc1OC` (stereo not given), the viability was 102%.

In the case of `N/N=c1\sc2ccccc2n1-c1ccccc1`, the viability is 93.4%.

For the compound `CCc1cc(=O)oc2cc(C)cc(OCC(=O)N[C@@H](CSCc3ccccc3)C(=O)O)c12`, the viability worked out at 97.8%.

Turning to `Cc1cccc(OCc2nnc(SCC(=O)N3c4ccccc4CCc4ccccc43)o2)c1`, the viability was 103%.

Consider `CCOC(=O)c1ccc(NC(=O)CSc2nc(C)cc(=O)[nH]2)cc1`, for which the viability came out at 96.7%.

Turning to `COC(=O)c1c(NC(=S)Nc2cc(OC)c(Cl)cc2OC)sc2c1CCCCC2`, the viability is 102%.

Take `C[C@@H](C(=O)Nc1ccc2ccccc2c1)[C@@H]1C[C@@]1(C)[C@@H](NC(=O)c1ccccc1)c1ccccc1`: the viability was determined as 102%.

As to `COc1cc(/C=N/NC(=O)c2ccc(CSc3nc4ccccc4[nH]3)cc2)cc(OC)c1OC`, the viability is 103%.

Consider `Cc1ccccc1-c1nc(CS(=O)CC(=O)N2CCC3(CC2)OCCO3)c(C)o1` (stereo not given), for which the viability came to 102%.

With `CC(C)CC(=O)NC(NC(=S)Nc1sc2c(c1C#N)CCCC2)C(Cl)(Cl)Cl` (stereo not given), the viability is 98.3%.

In the case of `CC12CCC(C(=O)N(CSC(=S)N/N=C\c3ccccc3Cl)C1=O)C2(C)C` (stereo not given), the viability came out at 94.5%.

In the case of `CCc1nnc(NS(=O)(=O)c2ccc(NC(=O)c3cc(Cl)ccc3[N+](=O)[O-])cc2)s1`, the viability stood at 98.5%.

`CC(C)CC(C(=O)Nc1oc(-c2ccco2)c(-c2ccco2)c1C#N)N1C(=O)c2ccccc2C1=O` (stereo not given): the viability was 103%.

Take `Cc1ccc(N(CC(=O)Nc2cccc(C)c2)S(=O)(=O)c2cccc3nonc23)cc1`: the viability is 101%.

Turning to `Cc1cc(OCC(=O)NC(Cc2ccc(Cl)cc2)C(=O)O)c2c(C)c(C)c(=O)oc2c1` (stereo not given), the viability came to 100%.

Consider `Cc1ccc(NC(=O)CC(=O)c2ccc([N+](=O)[O-])cc2)cc1S(=O)(=O)Nc1cccc(Cl)c1`, for which the viability was 105%.

On to `COc1cc(NC(=O)COC(=O)c2cc(S(=O)(=O)N3CCCCC3)ccc2Cl)c(C)cc1[N+](=O)[O-]`, for which the viability worked out at 101%.

With `O=C(COC(=O)c1ccc[nH]c1=O)Nc1ccc(S(=O)(=O)N2CCCC2)cc1`, the viability is 105%.

For the compound `CCOC(=O)N1CCC(NC(=O)c2ccc3c(c2)sc2nc(-c4ccccc4)cn23)CC1`, the viability is 102%.

Take `CCOc1cc(-c2c(C#N)c(=O)[nH]c3c2c(C)nn3-c2ccc(F)cc2)ccc1O`: the viability amounted to 85.4%.

Turning to `COc1cc(C2C(C#N)=C(N)Oc3c2ccc2ccccc32)ccc1OCC(=O)Nc1cccc(C)c1` (stereo not given), the viability came to 103%.

Regarding `CCc1ccccc1OCCCOc1ccc(OC)cc1`, the viability was 96.9%.

In the case of `COc1ccc(N2C(=O)N3[C@H](c4cccc(C)c4)[C@@H]4C(=O)N(Cc5ccccc5)C(=O)[C@@H]4[C@]3(Cc3ccccc3)C2=O)cc1`, the viability was 102%.

`C[C@@H](C(=O)Nc1ccc2ccccc2c1)[C@H]1C[C@]1(C)[C@H](NC(=O)c1cccnc1)c1ccccc1`: the viability is 98.4%.

With `COCCn1nnnc1C(c1cc2ccc(OC)cc2[nH]c1=O)N1CCN(C2CCCCC2)CC1` (stereo not given), the viability worked out at 95.9%.

Take `CCn1c2ccccc2c2cc(NC(=O)COC(=O)c3cccc(S(=O)(=O)NC)c3)ccc21`: the viability is 96.4%.

Consider `Cc1ccc(/C=C/C(=O)Oc2ccc(C#N)cc2)o1`, for which the viability was 101%.

`COCCN1CCn2c(nc3cc(NC(=O)c4ccc(OC)cc4)ccc32)C1`: the viability came to 105%.

Take `O=C(NCc1ccc2[nH]c3c(c2c1)CCCC3)c1ccc(S(=O)(=O)N2CCCC2)cc1`: the viability is 89.4%.

Regarding `COc1ccc(-n2c(Cc3cccn3C)nnc2SCC(=O)Nc2ccc(Cl)cc2)cc1`, the viability turned out to be 104%.

Take `O=C(CSc1nc2ccccc2c(=O)n1-c1ccccc1Cl)Nc1cccc(S(=O)(=O)N2CCOCC2)c1`: the viability was found to be 90.5%.

For `Cc1ccc(F)c([C@H]2[C@H]3C=CC[C@@H](C)[C@@H]3C(=O)N2Cc2ccccc2)c1`, the viability is 102%.

As to `COc1ccc(-c2cnnn2-c2ccc(NC(=O)c3ccc(S(=O)(=O)N4CCCCC4)cc3)cc2)cc1OC`, the viability came to 99.6%.

As to `O=C(C1=NN(c2ccccc2)C2C(=O)N(c3ccccc3Cl)C(=O)C12)c1ccccc1` (stereo not given), the viability worked out at 102%.

In the case of `COc1ccc(-c2csc(Nc3ccc(S(=O)(=O)Nc4cc(OC)nc(OC)n4)cc3)n2)cc1`, the viability came out at 102%.

On to `O=C(NCc1cccs1)C1CCCN1C(=O)Nc1ccccc1Cl` (stereo not given), for which the viability is 99.7%.

Turning to `CCOCCCNS(=O)(=O)c1ccc(NC(=O)Cc2c(F)cccc2Cl)cc1`, the viability was found to be 99.3%.

As for `COc1ccccc1-n1c(SCC(=O)NC(C)(C)C)nc(O)cc1=O`, the viability stood at 94.8%.
